Reference: the supplement of paper PMC10849652
This is one part of the list. Residues, ends and D or L forms follow the SMILES beside them. *: point of attachment. Cbz = O=C(OCc1ccccc1)*

Sequences of proteins named here, by UniProt entry; tags and fusion partners are left off. A change or cut given only in a name is not applied to a line headed by its entry.
UniProt Q5VUA4: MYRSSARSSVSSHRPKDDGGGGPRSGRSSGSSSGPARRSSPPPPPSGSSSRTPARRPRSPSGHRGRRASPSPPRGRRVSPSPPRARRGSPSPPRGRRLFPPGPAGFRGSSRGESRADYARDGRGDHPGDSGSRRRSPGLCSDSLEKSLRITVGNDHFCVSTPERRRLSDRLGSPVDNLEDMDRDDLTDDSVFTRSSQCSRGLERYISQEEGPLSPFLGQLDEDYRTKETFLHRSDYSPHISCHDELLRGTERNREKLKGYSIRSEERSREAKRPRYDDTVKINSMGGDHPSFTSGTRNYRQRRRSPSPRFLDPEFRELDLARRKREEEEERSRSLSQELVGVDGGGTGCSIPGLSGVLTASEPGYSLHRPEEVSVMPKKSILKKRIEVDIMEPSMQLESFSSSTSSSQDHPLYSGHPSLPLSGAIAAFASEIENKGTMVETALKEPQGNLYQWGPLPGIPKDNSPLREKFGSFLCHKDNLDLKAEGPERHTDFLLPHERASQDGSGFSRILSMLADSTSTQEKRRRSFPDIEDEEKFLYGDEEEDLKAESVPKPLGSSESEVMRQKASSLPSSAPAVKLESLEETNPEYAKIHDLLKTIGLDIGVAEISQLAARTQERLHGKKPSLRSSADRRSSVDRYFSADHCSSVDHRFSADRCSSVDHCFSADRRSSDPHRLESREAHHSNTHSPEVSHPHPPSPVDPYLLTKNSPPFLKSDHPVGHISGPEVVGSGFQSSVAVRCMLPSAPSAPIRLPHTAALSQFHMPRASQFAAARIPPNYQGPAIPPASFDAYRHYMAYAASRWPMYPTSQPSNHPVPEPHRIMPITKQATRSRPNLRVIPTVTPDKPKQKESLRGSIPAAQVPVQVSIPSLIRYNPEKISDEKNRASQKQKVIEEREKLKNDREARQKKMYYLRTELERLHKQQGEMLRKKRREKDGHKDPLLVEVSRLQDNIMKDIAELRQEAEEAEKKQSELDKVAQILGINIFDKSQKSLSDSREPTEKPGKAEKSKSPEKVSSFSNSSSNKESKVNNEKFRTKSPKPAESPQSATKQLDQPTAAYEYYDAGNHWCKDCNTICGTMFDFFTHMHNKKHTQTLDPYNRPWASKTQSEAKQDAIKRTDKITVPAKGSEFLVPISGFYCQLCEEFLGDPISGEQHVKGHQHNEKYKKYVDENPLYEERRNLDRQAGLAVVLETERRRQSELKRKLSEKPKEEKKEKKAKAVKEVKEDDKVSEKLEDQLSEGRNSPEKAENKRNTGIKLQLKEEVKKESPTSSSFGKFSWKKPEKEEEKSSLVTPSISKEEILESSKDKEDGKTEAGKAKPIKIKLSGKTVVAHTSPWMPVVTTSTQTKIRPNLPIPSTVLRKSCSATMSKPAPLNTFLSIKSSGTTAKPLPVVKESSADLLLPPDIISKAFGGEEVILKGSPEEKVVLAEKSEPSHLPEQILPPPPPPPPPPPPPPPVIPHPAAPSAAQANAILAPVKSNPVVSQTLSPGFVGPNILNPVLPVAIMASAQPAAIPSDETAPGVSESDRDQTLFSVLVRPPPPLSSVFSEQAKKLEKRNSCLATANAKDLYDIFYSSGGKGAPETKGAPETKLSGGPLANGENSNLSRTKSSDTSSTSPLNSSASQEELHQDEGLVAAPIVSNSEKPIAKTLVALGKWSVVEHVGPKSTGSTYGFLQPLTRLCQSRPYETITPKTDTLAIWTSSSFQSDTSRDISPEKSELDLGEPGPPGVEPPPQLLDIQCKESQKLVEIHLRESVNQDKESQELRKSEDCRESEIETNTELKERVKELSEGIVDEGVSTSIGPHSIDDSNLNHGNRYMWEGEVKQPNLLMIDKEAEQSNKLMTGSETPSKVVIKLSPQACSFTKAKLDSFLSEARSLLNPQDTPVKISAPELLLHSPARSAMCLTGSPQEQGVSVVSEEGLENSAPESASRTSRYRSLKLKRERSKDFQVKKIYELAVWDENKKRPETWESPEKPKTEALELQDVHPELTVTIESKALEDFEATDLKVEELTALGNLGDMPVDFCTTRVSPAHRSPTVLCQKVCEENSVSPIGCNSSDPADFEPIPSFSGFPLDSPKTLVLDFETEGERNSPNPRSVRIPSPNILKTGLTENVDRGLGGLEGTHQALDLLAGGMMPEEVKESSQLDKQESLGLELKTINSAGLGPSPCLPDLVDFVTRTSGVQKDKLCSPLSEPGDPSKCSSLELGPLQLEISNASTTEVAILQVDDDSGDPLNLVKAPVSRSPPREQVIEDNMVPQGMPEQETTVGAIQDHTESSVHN
UniProt Q9Y3S2: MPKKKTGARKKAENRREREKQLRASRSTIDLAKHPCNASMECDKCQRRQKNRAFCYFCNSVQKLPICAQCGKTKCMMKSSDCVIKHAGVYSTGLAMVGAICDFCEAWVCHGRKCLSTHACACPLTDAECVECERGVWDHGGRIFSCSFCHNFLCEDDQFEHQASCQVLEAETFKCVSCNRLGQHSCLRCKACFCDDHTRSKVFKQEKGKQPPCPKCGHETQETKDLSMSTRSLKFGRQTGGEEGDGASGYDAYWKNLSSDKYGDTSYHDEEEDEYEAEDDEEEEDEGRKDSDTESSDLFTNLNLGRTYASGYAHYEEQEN
UniProt Q96PM9: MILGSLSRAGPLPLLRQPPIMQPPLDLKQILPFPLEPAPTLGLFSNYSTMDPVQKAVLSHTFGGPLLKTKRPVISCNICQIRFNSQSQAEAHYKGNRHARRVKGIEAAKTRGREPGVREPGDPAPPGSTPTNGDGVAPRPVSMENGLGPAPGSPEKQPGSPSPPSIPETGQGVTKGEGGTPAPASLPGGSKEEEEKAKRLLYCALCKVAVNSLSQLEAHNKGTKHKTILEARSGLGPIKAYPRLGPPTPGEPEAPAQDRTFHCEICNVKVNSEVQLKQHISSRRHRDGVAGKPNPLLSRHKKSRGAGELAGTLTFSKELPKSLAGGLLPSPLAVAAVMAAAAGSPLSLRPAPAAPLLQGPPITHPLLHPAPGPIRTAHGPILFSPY
UniProt Q96IQ9: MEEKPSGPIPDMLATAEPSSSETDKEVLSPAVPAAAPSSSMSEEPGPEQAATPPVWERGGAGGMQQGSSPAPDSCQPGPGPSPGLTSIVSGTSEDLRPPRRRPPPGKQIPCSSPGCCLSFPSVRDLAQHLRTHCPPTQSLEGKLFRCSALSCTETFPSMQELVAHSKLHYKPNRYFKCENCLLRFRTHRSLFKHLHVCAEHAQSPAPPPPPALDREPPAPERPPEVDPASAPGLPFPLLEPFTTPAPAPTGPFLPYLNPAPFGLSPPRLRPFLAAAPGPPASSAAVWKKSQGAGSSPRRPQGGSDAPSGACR
UniProt Q9P0T4: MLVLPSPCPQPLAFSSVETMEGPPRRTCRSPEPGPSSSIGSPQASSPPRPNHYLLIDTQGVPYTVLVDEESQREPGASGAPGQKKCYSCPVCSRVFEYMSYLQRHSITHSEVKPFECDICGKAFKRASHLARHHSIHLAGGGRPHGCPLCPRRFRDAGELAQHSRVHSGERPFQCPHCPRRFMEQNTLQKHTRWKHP
UniProt Q96KM6: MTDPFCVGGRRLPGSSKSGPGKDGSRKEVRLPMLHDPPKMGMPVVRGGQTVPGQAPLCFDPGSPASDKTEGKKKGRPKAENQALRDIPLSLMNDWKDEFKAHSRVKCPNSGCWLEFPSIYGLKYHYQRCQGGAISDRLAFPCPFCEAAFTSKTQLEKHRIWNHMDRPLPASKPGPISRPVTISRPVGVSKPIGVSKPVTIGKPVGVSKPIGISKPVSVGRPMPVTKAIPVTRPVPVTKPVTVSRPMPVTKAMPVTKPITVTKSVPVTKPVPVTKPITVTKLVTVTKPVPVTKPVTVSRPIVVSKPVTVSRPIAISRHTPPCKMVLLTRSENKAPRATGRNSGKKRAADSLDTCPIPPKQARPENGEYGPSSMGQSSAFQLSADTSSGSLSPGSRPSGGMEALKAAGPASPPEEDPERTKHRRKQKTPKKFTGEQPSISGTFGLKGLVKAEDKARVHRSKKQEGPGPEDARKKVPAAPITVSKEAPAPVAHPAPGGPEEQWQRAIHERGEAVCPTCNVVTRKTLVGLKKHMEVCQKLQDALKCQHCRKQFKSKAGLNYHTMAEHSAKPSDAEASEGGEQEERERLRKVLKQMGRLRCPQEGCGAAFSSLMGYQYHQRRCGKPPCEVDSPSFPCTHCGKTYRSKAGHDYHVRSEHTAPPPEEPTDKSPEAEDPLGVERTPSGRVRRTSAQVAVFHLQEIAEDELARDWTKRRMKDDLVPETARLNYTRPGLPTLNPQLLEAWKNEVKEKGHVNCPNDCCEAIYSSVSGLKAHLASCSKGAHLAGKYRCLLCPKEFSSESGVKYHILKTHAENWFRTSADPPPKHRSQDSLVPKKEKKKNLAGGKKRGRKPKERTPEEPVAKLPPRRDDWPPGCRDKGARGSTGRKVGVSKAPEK
UniProt Q9Y4E5: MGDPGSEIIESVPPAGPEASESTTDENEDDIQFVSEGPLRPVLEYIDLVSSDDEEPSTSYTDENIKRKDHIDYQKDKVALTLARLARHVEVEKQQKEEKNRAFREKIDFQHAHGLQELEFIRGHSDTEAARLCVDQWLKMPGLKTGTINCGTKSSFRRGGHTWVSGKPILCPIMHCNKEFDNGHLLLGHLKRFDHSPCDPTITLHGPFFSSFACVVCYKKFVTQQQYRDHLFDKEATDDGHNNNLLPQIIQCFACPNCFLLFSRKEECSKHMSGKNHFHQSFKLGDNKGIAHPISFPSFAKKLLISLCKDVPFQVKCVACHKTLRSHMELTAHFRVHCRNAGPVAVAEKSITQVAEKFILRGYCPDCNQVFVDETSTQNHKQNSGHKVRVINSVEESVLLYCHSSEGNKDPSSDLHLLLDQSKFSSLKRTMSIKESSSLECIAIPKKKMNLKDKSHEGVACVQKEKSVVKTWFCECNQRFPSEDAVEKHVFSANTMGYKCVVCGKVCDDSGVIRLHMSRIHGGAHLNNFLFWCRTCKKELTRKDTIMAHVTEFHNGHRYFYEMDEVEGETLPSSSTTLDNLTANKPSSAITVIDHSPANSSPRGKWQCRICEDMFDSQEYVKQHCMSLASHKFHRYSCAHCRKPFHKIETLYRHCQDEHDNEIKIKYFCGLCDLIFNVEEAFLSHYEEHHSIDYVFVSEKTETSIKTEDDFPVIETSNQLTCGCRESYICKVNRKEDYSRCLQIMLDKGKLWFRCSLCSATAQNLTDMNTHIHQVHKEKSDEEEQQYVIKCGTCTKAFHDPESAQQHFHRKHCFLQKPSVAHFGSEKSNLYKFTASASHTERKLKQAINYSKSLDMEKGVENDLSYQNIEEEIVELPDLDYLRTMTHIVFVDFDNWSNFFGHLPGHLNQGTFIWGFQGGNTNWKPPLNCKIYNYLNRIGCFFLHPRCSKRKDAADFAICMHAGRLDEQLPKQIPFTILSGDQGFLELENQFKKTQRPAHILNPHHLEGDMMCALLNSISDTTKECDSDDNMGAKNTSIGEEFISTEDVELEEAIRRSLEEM
UniProt Q6N043: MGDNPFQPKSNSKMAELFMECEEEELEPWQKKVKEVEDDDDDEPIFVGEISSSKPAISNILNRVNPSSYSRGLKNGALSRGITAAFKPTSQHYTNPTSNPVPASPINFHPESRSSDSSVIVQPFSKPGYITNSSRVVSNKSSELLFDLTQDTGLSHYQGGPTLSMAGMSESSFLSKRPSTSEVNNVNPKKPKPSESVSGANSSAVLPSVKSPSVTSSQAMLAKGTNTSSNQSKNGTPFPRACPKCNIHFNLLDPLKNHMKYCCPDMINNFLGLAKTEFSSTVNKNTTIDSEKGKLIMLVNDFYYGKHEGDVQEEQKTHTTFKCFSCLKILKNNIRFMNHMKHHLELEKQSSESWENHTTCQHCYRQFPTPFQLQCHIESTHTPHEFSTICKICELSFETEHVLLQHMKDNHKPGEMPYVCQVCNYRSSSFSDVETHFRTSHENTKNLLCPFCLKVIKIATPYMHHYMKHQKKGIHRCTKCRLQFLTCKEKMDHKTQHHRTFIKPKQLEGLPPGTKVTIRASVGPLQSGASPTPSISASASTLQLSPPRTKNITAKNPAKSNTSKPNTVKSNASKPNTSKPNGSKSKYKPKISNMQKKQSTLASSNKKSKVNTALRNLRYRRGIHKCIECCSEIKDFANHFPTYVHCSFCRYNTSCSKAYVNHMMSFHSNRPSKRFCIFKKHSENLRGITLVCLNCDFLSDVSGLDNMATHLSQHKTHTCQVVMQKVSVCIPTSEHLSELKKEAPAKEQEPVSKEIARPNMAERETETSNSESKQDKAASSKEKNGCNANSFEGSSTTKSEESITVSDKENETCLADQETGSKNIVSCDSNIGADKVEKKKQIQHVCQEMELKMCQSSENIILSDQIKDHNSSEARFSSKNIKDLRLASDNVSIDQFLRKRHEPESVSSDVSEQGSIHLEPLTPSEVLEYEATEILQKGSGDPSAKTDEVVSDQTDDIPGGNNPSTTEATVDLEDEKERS

What was measured:
Test in all cases: log2 fold change, soluble protein after heating vs DMSO (PISA); higher = thermal stabilisation; K562 cells, 10 uM, 30 min; active = over 0.2 and 3.5 SD of the protein, either way, in both replicates (recomputed)
[1] = target: ZNF277 (UniProt Q9NRM2)
Procedure, shortened: (§1)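 K562 cells at 2×10^6 cells/mL were treated with 10 μM compound for 30 min. Aliquots were heated for 3 min across 48°C-58°C, pooled, and extracted in PBS with 0.5% NP-40 at 4°C; soluble protein was the supernatant after 21,000xg for 90 min. Soluble protein was quantified by TMTpro 16plex LC-MS/MS with channel sums equalised, and reported as log2 fold change in thermal stability against DMSO controls, with values from duplicates.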

[2] = target: ZNF316 (UniProt A6NFI3)
Procedure, shortened: as §1

[3] = target: ZNF318 (UniProt Q5VUA4)
Procedure, shortened: as §1

[4] = target: ZNF330 (UniProt Q9Y3S2)
Procedure, shortened: as §1

[5] = target: ZNF346 (UniProt Q9UL40)
Procedure, shortened: as §1

[6] = target: ZNF384 (UniProt Q8TF68)
Procedure, shortened: as §1

[7] = target: ZNF385A (UniProt Q96PM9)
Procedure, shortened: as §1

[8] = target: ZNF414 isoform 2 (UniProt Q96IQ9)
Procedure, shortened: as §1

[9] = target: ZNF428 (UniProt M0QXZ5)
Procedure, shortened: as §1

[10] = target: ZNF444 (UniProt Q8N0Y2)
Procedure, shortened: as §1

[11] = target: ZNF511 isoform 1 (UniProt Q8NB15)
Procedure, shortened: as §1

[12] = target: ZNF512 (UniProt Q96ME7)
Procedure, shortened: as §1

[13] = target: ZNF579 (UniProt Q8NAF0)
Procedure, shortened: as §1

[14] = target: ZNF581 (UniProt Q9P0T4)
Procedure, shortened: as §1

[15] = target: ZNF326 (UniProt Q5BKZ1)
Procedure, shortened: as §1

[16] = target: ZNF512B (UniProt Q96KM6)
Procedure, shortened: as §1

[17] = target: ZNF451 (UniProt Q9Y4E5)
Procedure, shortened: as §1

[18] = target: ZNF280D (UniProt Q6N043)
Procedure, shortened: as §1

SMILES | log2 fold change [1] | log2 fold change [2] | log2 fold change [3] | log2 fold change [4] | log2 fold change [5] | log2 fold change [6] | log2 fold change [7] | log2 fold change [8] | log2 fold change [9] | log2 fold change [10] | log2 fold change [11] | log2 fold change [12] | log2 fold change [13] | log2 fold change [14] | log2 fold change [15] | log2 fold change [16] | log2 fold change [17] | log2 fold change [18]
O=C1NC(=NCc2cccs2)S/C1=C\c1ccc2ncccc2c1 | inactive: 0.019 | inactive: 0.108 | inactive: 0.007 | inactive: 0.006 | inactive: 0.182 | inactive: -0.067 | inactive: -0.006 | inactive: -0.001 | inactive: -0.064 | inactive: 0.004 | inactive: 0.087 | inactive: 0.102 | inactive: -0.051 | inactive: -0.077 |  |  |  | 
CC(C)C[C@@H](C=O)NC(=O)[C@H](CC(C)C)NC(=O)[C@H](CC(C)C)NC(=O)OCc1ccccc1 (Cbz-Leu-Leu-Leu-aldehyde) | inactive: 0.137 | inactive: -0.071 | inactive: -0.05 | inactive: 0.11 | inactive: -0.012 |  | inactive: 0.069 | inactive: -0.198 | inactive: -0.049 |  | inactive: 0.195 |  | inactive: -0.271 |  | inactive: 0.071 | inactive: 0.184 |  | 
CCCc1cc(C)[nH]c(=O)c1CNC(=O)c1cc(-c2ccnc(N3CCN(C)CC3)c2)cc2c1cnn2C(C)C | inactive: 0.154 | inactive: 0.192 |  | inactive: -0.016 | inactive: -0.092 | inactive: 0.172 | inactive: -0.158 | inactive: 0.043 | inactive: -0.055 |  | inactive: 0.08 | inactive: 0.363 | inactive: 0.058 | inactive: 0.085 |  | inactive: 0.037 | inactive: 0.142 | 
COc1cc(Nc2ncc3c(n2)-c2ccc(Cl)cc2C(c2c(F)cccc2OC)=NC3)ccc1C(=O)O [alisertib] | inactive: 0.028 | inactive: -0.045 |  | inactive: -0.03 | inactive: -0.091 | inactive: -0.119 | inactive: -0.159 | inactive: -0.243 | inactive: -0.066 |  | inactive: 1.14 | inactive: -0.286 | inactive: -0.082 | inactive: 0 |  | inactive: -0.119 | inactive: -0.143 | 
O=C1NC(=O)/C(=C\c2ccc3nccnc3c2)S1 | inactive: -0.108 | inactive: 0.198 |  | inactive: 0.022 | inactive: 0.014 | inactive: -0.022 | inactive: 0.048 | inactive: -0.049 | inactive: 0.023 |  | inactive: 0.017 |  | inactive: -0.07 |  |  |  |  | 
COc1cc2ncnc(Nc3ccc(F)c(Cl)c3)c2cc1OCCCN1CCOCC1 [gefitinib] | inactive: -0.053 |  |  | inactive: -0.008 | inactive: 0.011 |  | inactive: -0.236 |  | inactive: 0.022 |  | inactive: -0.192 | inactive: -0.02 | inactive: 0.111 |  |  |  |  | inactive: -0.002
CC(C)(C)Cn1c(N)nc2ccc(-c3[nH]c(C(C)(C)C)nc3-c3ccc(F)cc3)nc21 [ralimetinib] | inactive: 0.116 | inactive: 0.051 | inactive: -0.354 | inactive: -0.022 | inactive: 0.033 |  | inactive: 0.162 | inactive: 0.31 | inactive: 0.174 |  | inactive: 0.074 |  | inactive: 0.032 |  | inactive: 0.152 | inactive: 0.266 |  | 
CC[C@H](C)n1cc(C)c2c(C(=O)NCc3c(C)cc(C)[nH]c3=O)cc(-c3ccc(N4CCNCC4)nc3)cc21 | inactive: 0.02 |  |  | inactive: 0.065 | inactive: 0.074 |  | inactive: -0.07 |  | inactive: -0.03 |  | inactive: -0.058 | inactive: -0.002 | inactive: 0.167 |  |  |  |  | inactive: 0.085
C/C(=N\NC(=O)c1cccc(S(=O)(=O)N2CCOCC2)c1)c1cc(Cl)ccc1O | inactive: -0.031 | inactive: 0.042 | inactive: -0.044 | inactive: -0.017 | inactive: -0.103 | inactive: -0.163 | inactive: -0.008 | inactive: -0.008 | inactive: -0.05 | inactive: -0.13 | active: -0.402 | inactive: -0.085 | inactive: 0.147 | inactive: 0.11 |  |  |  | 
CCN(CCCOc1ccc2c(Nc3cc(CC(=O)Nc4cccc(F)c4)[nH]n3)ncnc2c1)CCOP(=O)(O)O [barasertib] | inactive: 0.026 | inactive: 0.066 |  | inactive: -0.001 | inactive: 0.016 | inactive: 0.183 | inactive: -0.04 | inactive: 0.113 | inactive: 0.011 |  | inactive: -0.041 |  | inactive: 0.037 |  |  |  |  | 
C[C@@H](N)c1ccc(C(=O)Nc2ccnc3[nH]ccc23)cc1 | inactive: 0.315 | inactive: 0.081 | inactive: -0.152 | inactive: 0.033 | inactive: 0.077 | inactive: 0.308 | inactive: 0.154 | inactive: -0.157 | inactive: -0.133 | inactive: 0.132 | inactive: -0.105 | inactive: 0.45 | inactive: 0.102 | inactive: 0.222 |  |  |  | 
NC(=O)c1cnc(N[C@@H]2CCCC[C@@H]2N)nc1Nc1cccc(-n2nccn2)c1 | inactive: 0.067 | inactive: 0.042 | inactive: 0.002 | inactive: -0.078 | inactive: -0.154 | inactive: 0.017 | inactive: 0.087 | inactive: -0.191 | inactive: 0.088 | inactive: 0.177 | inactive: -0.066 | inactive: -0.005 | inactive: 0.067 | inactive: -0.015 |  |  |  | 
O=C1c2ccccc2-c2n[nH]c3cccc1c23 | inactive: 0.065 | inactive: -0.588 | inactive: 0.016 | inactive: -0.042 | inactive: -0.05 | inactive: -0.009 | inactive: 0.115 | inactive: 0.013 | inactive: 0.035 | inactive: 0.115 | inactive: 0.041 | inactive: 0.161 | inactive: 0.279 | inactive: 0.034 |  |  |  | 
COc1cc(C(=O)O)ccc1NC(=O)[C@@H]1N[C@@H](CC(C)(C)C)[C@](C#N)(c2ccc(Cl)cc2F)[C@H]1c1cccc(Cl)c1F [idasanutlin] | inactive: -0.003 | inactive: 0.181 | inactive: -0.008 | inactive: 0.082 | inactive: -0.049 | inactive: 0.14 | inactive: 0.064 | inactive: 0.061 | inactive: 0.092 | inactive: -0.025 | inactive: 0.128 | inactive: 0.3 | inactive: -0.116 | inactive: 0.229 |  |  |  | 
CC(=O)c1cnc2ccc(-c3cc(Cl)c(O)c(Cl)c3)nc2c1N[C@H]1CC[C@H](CN(C)C)CC1 | inactive: -0.017 | inactive: -0.181 | inactive: -0.098 | inactive: -0.023 | inactive: -0.246 | inactive: 0.045 | inactive: -0.087 | inactive: 0.08 | inactive: -0.039 | inactive: -0.058 | inactive: -0.005 | inactive: -0.15 | inactive: -0.187 | inactive: -0.086 |  |  |  | 
Cc1cn(-c2cc(NC(=O)c3ccc(C)c(Nc4nccc(-c5cccnc5)n4)c3)cc(C(F)(F)F)c2)cn1 [nilotinib] | inactive: -0.207 |  |  | inactive: 0.057 | inactive: -0.177 |  | inactive: 0.147 |  | inactive: 0.016 |  | inactive: -0.17 | inactive: -0.031 | inactive: 0.105 |  |  |  |  | inactive: -0.167
CO[C@H]1C[C@@H]2CC[C@@H](C)[C@@](O)(O2)C(=O)C(=O)N2CCCC[C@H]2C(=O)O[C@H]([C@H](C)C[C@@H]2CC[C@H](n3cnnn3)[C@H](OC)C2)CC(=O)[C@H](C)/C=C(\C)[C@@H](O)[C@@H](OC)C(=O)[C@H](C)C[C@H](C)/C=C/C=C/C=C/1C [zotarolimus] | inactive: -0.084 | inactive: -0.138 | inactive: -0.032 | inactive: 0.002 | inactive: -0.053 | inactive: -0.181 | inactive: 0.055 | inactive: 0.173 | inactive: 0.089 | inactive: -0.02 | inactive: 0.066 | inactive: -0.024 | inactive: 0.099 | inactive: -0.107 |  |  |  | 
Cn1cc(-c2ccc3c(c2)CCN3C(=O)Cc2cccc(C(F)(F)F)c2)c2c(N)ncnc21 | inactive: -0.163 | inactive: -0.014 | inactive: 0.039 | inactive: -0.018 | inactive: -0.043 | inactive: -0.034 | inactive: -0.06 | inactive: 0.069 | inactive: 0.106 | inactive: -0.026 | inactive: 0.01 | active: -0.86 | inactive: 0.059 | inactive: -0.195 |  |  |  | 
FC(F)(F)c1ccc(/C=C/c2nc(COc3ccc(CCCCn4ccnn4)cc3)co2)cc1 [mubritinib] | inactive: 0.192 | inactive: -0.223 |  | inactive: 0.026 | inactive: 0.087 | inactive: -0.21 | inactive: -0.083 | inactive: 0.102 | inactive: 0.001 |  | inactive: -0.06 | inactive: -0.122 | inactive: 0.031 | inactive: -0.358 |  | inactive: -0.225 | inactive: 0.298 | 
Oc1cc(-c2nc(-c3ccccc3)[nH]c2-c2ccncc2)ccc1Cl | inactive: -0.004 | inactive: -0.195 | inactive: -0.443 | inactive: -0.087 | inactive: -0.006 |  | inactive: 0.036 | inactive: 0.535 | inactive: 0.075 |  | inactive: 0.018 |  | inactive: -0.025 |  | inactive: 0.004 | inactive: -0.016 |  | 

A few values from the results shown:
Under log2 fold change [8], CC(C)(C)Cn1c(N)nc2ccc(-c3[nH]c(C(C)(C)C)nc3-c3ccc(F)cc3)nc21 [ralimetinib] has the entry inactive: 0.31
Under log2 fold change [17], FC(F)(F)c1ccc(/C=C/c2nc(COc3ccc(CCCCn4ccnn4)cc3)co2)cc1 [mubritinib] has the entry inactive: 0.298
